{"source": "patent US20110190834A1", "about": "“DEVICES AND METHODS FOR SUPPRESSION OF SYMPATHOEXCITATION” (priority 2010, published 2011)", "key": {"[1]": {"details": "after atropine administered during exercise"}, "[2]": {"details": "by 10 minutes of recovery, atropine test"}}, "note": "Read-outs that look alike come from different tables or passages of the source.", "data": [{"compound": "CN1[C@@H]2CC[C@H]1C[C@@H](OC(=O)C(CO)c1ccccc1)C2", "note": "(some centres unmarked) [Atropine, atropine]", "values": [{"measurement": "plasma epinephrine level", "setting": "[1]", "value": "significant reductions"}, {"measurement": "plasma norepinephrine level", "setting": "[1]", "value": "significant reductions"}, {"measurement": "plasma epinephrine level", "setting": "[2]", "value": "returned to the resting values"}, {"measurement": "plasma norepinephrine level", "setting": "[2]", "value": "returned to the resting values"}, {"measurement": "plasma catecholamine levels", "setting": "during recovery, atropine at the end of exercise, versus baseline values", "value": "slightly lower than baseline values"}]}]}
